For four molecules, binding results are on record in article PMC6748086.

The chains behind the UniProt entries cited, without tags or fusion partners. Where a name states a change or a piece, a line headed by the entry shows the natural chain unless it says otherwise. Residues count along the entry.
UniProt P49715: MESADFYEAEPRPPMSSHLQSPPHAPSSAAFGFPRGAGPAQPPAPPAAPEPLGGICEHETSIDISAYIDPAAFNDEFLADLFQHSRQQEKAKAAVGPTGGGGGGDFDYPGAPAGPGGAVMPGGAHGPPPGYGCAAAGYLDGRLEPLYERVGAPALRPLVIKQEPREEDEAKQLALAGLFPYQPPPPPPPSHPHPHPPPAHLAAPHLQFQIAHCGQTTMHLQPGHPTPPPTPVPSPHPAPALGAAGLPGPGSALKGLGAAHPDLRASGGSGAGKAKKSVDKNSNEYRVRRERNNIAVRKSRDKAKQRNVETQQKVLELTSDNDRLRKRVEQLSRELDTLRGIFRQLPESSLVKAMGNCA
GST-C4 (103–212) of C/EBPα: residues 103-212 of P49715

Results are given in words; binding and its absence hold for the method and conditions named. Binding seen in cells or lysates may run through a third protein. Some results given as binding are weak or reduced against the parent protein; the word gives no strength. For part of these data: Where a sequence is shown, tags or fusion partners need not be part of it.

One test has as its target T1, Flag-MORC2 (human) (UniProt Q9Y6X9).
T1 sequence: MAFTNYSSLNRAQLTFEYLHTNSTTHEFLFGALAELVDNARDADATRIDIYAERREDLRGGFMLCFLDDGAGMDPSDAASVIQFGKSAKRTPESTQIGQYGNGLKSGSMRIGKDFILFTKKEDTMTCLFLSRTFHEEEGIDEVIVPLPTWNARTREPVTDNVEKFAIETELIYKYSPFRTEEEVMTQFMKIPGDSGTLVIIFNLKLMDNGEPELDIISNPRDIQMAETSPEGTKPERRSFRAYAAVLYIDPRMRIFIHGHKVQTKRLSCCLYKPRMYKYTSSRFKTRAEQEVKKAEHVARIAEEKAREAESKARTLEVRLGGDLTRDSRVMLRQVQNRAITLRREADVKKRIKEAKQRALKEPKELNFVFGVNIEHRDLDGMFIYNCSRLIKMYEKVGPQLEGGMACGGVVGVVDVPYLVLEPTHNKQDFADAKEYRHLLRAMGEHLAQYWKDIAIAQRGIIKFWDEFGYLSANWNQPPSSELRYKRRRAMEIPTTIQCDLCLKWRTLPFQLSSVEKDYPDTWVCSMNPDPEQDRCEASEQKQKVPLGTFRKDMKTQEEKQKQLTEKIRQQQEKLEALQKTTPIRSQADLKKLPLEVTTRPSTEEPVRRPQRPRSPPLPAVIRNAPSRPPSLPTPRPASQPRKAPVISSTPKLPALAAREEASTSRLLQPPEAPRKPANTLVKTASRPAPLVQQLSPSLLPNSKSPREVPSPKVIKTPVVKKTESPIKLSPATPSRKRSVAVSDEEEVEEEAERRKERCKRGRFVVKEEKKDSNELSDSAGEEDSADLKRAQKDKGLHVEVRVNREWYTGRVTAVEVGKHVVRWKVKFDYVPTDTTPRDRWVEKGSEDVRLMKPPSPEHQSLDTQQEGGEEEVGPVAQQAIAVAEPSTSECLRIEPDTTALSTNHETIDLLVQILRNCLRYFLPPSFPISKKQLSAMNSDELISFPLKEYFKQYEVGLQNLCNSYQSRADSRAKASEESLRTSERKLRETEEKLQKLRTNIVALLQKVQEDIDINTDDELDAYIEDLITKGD
Description: co-IP; HEK-293T cells transiently transfected with His-C/EBPα plus Flag-MORC2 for 36 h; total lysates immunoprecipitated and blotted with Flag-tag or His-tag antibody (reciprocal).

In a further test the target is T2, endogenous MORC2 (UniProt Q9Y6X9).
T2 sequence: T1 sequence
Description: co-IP; IP of endogenous C/EBPα and MORC2; cells not named.

Another test concerns the target T3, GST-MORC2 (human) (UniProt Q9Y6X9).
T3 sequence: T1 sequence
Put plainly: pull-down; GST-MORC2, GST-MORC2 deletions or GST incubated with in vitro transcribed and translated C/EBPα; bound proteins detected by western blot (His-tag antibody in Fig. 1a); only the target purified.

Test [1] concerns the target T4, amino acids 657–781 of GST-MORC2 (human) (UniProt Q9Y6X9).
T4 sequence: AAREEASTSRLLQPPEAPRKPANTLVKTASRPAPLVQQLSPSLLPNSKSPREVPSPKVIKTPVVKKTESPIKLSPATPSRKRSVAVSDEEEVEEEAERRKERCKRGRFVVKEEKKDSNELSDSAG
Described as above.

Test [2] addresses GST-C4 (103–212) of C/EBPα (UniProt P49715). Description: pull-down; purified GST, GST-C/EBPα full length or truncation and deletion constructs incubated with in vitro-translated MORC2; bound proteins detected by western blot; only the target purified. In general terms: Immunoblotting shows a protein as a band on a membrane.
The target of the next test is full length GST-C/EBPα (UniProt P49715). The description is as above.

For His-C/EBPα (from UniProt P49715 1-358), the binding result with Flag-MORC2 (human) is reported as “binds”.
Take “endogenous C/EBPα (from UniProt P49715 1-358)”: in the test with endogenous MORC2, the binding result was “binds”.
As for “in vitro-transcribed and translated His-C/EBPα (from UniProt P49715 1-358)”, the binding result (with GST-MORC2 (human); in test [1]) was “binds” throughout.

B1: in vitro-translated His-MORC2 (protein, UniProt Q9Y6X9 1-1032)
chain: T1 sequence
On to B1, for which the binding entry (in test [2]; with full length GST-C/EBPα) was “binds” in each case.
